In patent US7786147B2, “Analogs of choline for neuroprotection and cognitive enhancement in neurodegenerative disorders” (Medical College of Georgia Research Institute., priority 2001, dated 2010):
Some entries share one result that the patent states for a list of compounds. At least one compound was matched to its structure with a doubt left.

These compounds were tested on differentiated PC-12 cells (assay: MTT cell viability (neuroprotection) assay after neurotrophic factor withdrawal). Conditions: PC-12 cells deprived of neurotrophic factors for 24 hr; analog added at withdrawal; 0.1-10 mM; FIG. 5.
Assay type: cell-based
Procedure: Cell Culture: PC12 cells were maintained in 150-cm^2 tissue-culture flasks in Dulbecco's Modified Eagles medium containing 7% horse serum, 7% fetal calf serum, 1% non-essential amino-acids and 1% streptomycin (DMEM). The cells were incubated at 37 C in a 5% CO2-enriched, humidified atmosphere. To attain maximum differentiation, the cells were maintained in DMEM.NGF medium for 7 days, with the medium being changed every 2 or 3 days.
Assay for Cell viability. Cells were dissociated by trituration and plated at 1×10^4 cells per well on poly-L-lysine coated 96 well plates containing DMEM.NGF media. Next, the differentiated cells were incubated with the test drug at different concentrations for the specified period of time. Cell viability (cytotoxicity) was determined using the Cell Titer 96 non-radioactive cell proliferation/cytotoxicity assay kit (Promega), which is based on the cellular conversion of a 3-(4,5-dimethylthiazol-2-yl)-2,5-diphenyltetrazolium bromide (MTT) into a formazan product which can be detected spectrophotometrically. After deprivation of cells from NGF and serum, the medium was aspirated and 15 l of dye solution dissolved in DMEM was added. After an additional 4 hr incubation at 37 C, 100 l of solubilization/stop solution was added and the absorbance of solubilized MTT formazan products was measured at 570 nm.
Differentiated PC-12 cells were deprived of neurotrophic factors for 24 hr to promote cytotoxicity. Cell viability was measured by the MTT assay under control conditions, and in cultures in which a choline analog was introduced into the medium at the time of neurotrophic factor withdrawal. […] Choline and its mono-, di-, and tri-ethyl analogs produced a concentration dependent and intermediate level of neuroprotection improving cell viability by up to 40% of baseline.

Compound	improvement of cell viability
CC(=O)OCC[N+]1(C)CCCC1 [acetylpyrrolidinecholine]	over 60 % of baseline
CC[N+](C)(CC)CCO [di-ethyl analog]	up to 40 % of baseline
CC[N+](C)(C)CCO [mono-ethyl analog]	up to 40 % of baseline
CC[N+](CC)(CC)CCO [tri-ethyl analog]	up to 40 % of baseline
